These are yes or no findings as the source states them, for the method shown. Binding seen in cells or lysates may run through a third protein. Some entries that bind do so weakly or less than the wild type. For part of these data: Where a sequence is shown, tags or fusion partners need not be part of it.
Tests used:
[1] = biological target: β1-integrin (UniProt P05556); experiment: co-IP; paramagnetic beads coated with 200 μg/ml antibody (12G10: active β1-integrin; mAb13: inactive β1-integrin; OKT9: transferrin receptor) incubated with fibroblasts expressing GFP-RhoG for 20 min at room temperature; complexes stabilised with DTBP membrane-permeable cross-linker; cells lysed by sonication; quantitative western blotting
[2] = biological target: T1, GST-ELMO2 (amino acids 1–362) (UniProt Q96JJ3); experiment: pull-down; effector pull-down with GST-ELMO2 (amino acids 1–362) as bait from fibroblasts spread on 50K and stimulated with H/0 over a time course; quantitative western blotting; only the target purified
T1 sequence: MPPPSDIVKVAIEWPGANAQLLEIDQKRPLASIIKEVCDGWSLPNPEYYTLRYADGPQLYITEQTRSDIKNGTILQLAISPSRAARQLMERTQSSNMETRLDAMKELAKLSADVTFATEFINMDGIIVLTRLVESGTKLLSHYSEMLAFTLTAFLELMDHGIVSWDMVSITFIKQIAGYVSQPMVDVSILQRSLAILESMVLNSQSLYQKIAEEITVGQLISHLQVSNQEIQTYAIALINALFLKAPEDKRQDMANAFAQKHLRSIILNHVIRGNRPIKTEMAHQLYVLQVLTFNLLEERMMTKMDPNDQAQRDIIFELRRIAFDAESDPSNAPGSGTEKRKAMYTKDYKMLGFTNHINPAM

Chains of the proteins cited; added tags and fusions are not shown.
UniProt P05556: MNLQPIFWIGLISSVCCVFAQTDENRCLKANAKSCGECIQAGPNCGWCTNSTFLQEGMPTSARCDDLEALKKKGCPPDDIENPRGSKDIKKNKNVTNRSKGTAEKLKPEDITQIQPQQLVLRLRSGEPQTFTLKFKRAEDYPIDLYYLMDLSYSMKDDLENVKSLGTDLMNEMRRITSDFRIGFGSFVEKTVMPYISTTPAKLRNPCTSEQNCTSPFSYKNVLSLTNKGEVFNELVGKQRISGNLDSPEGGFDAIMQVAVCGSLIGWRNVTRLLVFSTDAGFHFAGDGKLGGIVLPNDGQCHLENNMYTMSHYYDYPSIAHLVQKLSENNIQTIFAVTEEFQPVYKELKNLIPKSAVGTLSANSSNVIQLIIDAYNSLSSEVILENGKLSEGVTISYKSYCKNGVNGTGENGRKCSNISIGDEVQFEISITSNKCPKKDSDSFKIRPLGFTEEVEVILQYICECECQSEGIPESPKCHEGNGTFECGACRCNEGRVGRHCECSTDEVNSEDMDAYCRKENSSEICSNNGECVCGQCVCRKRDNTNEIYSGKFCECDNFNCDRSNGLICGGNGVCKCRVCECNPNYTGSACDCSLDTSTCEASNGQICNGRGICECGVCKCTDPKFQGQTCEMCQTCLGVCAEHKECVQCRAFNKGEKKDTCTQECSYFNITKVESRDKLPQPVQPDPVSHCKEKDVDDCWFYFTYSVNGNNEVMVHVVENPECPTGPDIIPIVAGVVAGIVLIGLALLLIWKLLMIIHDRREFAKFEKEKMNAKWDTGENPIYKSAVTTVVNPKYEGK
UniProt P84095: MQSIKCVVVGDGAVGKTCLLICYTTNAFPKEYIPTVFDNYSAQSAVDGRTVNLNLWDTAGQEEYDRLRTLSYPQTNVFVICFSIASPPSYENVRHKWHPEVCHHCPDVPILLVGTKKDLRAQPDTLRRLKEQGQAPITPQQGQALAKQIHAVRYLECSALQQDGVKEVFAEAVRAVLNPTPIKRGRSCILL
UniProt Q03135: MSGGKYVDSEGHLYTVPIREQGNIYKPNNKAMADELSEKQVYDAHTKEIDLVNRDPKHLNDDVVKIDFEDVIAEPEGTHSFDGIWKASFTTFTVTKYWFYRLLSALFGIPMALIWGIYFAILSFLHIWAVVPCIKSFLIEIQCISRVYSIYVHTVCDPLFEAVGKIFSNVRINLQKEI

binding [1] | binding [2] | Substance
binds |  | GFP-RhoG (from UniProt P84095 1-191)
 | binds | Active RhoG (from UniProt P84095 1-191)
binds |  | caveolin (from UniProt Q03135 1-178)
